Results deposited as PubChem BioAssay AID1053208 (Peter MacCallum Cancer Centre, 2014).

Screen: 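Genes whose silencing cuts survival of bone tumour cells only with doxorubicin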 (primary screen)
Cell system: mouse osteosarcoma cells, early-passage culture from an engineered mouse model of fibroblastic bone tumour
Reagent: siRNA pool against mouse genes, 40 nM
Time to read-out: about 120 h (48 h before drug, then 72 h with drug)
Conditions: doxorubicin 100 nM for 72 h, roughly 30-40% inhibitory dose
Measurement: 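Luminescent ATP signal taken as viability with or without 100 nM doxorubicin for 72 h; mean of two wells set against non-targeting siRNA and turned into robust z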
Scale: viability z-score with doxorubicin: higher = more viable cells under doxorubicin; viability z-score without drug: higher = more viable cells with knock-down alone
Hit rule: 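Called active if knock-down leaves viability unchanged without drug (z within -2 to 2) but lowers it with doxorubicin (z at or under -2)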
Shown is an unselected part of about 17,000 reagents tested. 788 of all reagents (4.7%) were called active. 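Calls rest on z-score classes alone; an extra cut-off of viability at most 70% of control was not applied to them.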 Unmarked entries are inactive. Reagents against one gene are numbered here. Not all columns of the deposit are shown.

gene knocked down,reagent,combined z-score class,viability z-score with doxorubicin,viability z-score without drug
Ppp3r1,1,no change with or without drug,0.79,-0.34
Ptpn20,1,no change with or without drug,0,-1.35
Coq4,1,no change with or without drug,-0.67,0.34
Gpr150,1,no change with or without drug,-0.34,0.34
D3Ertd751e,1,no change with or without drug,0,0.34
Tas2r126,1,low cell count without drug only,1.24,-2.02
Olig2,1,no change with or without drug,0.9,0.67
Adgrb3,1,no change with or without drug,-0.11,0.84
Psmd5,1,no change with or without drug,0.9,0.17
Rtel1,1,no change with or without drug,-0.45,0.51
Atp8a2,1,no change with or without drug,-1.12,1.18
Or4a71,1,no change with or without drug,-0.11,-1.52
Cdc14b,1,no change with or without drug,-0.11,-0.51
Smad7,1,high cell count with and without drug,2.02,2.36
Col6a6,1,no change with or without drug,-0.45,1.52
Fgr,1,no change with or without drug,0.34,0.84
Mphosph10,1,low cell count with and without drug,-3.37,-5.23
Pigz,1,no change with or without drug,1.57,0.51
9330160A12,1,no change with or without drug,-0.11,0.67
Eif3a,1,low cell count with and without drug,-2.47,-2.02
Tmem205,1,no change with or without drug,-1.69,-0.84
Tmem65,1,high cell count without drug only,0.45,2.36
Uxs1,1,no change with or without drug,-1.69,-0.84
Cox15,1,no change with or without drug,0.11,-0.84
Clec2g,1,no change with or without drug,0.9,-0.51
Cela1,1,high without drug; low with doxorubicin,-4.72,2.19
Gabrg1,1,no change with or without drug,0.34,-0.84
Phf24,1,no change with or without drug,1.12,1.01
Ce9,1,no change with or without drug,0.9,0.84
Tapbp,1,no change with or without drug,0.45,0.84
Fzd9,1,no change with or without drug,0,-1.01
BC024139,1,no change with or without drug,-1.01,-1.18
Cpsf1,1,no change with or without drug,-0.11,0.34
Ctdspl,1,high cell count with doxorubicin only,2.7,1.52
Mef2d,1,no change with or without drug,-0.45,1.69
Csf1r,1,high cell count without drug only,0.11,3.2
Zfp128,1,no change with or without drug,-1.8,-0.51
Zfp710,1,no change with or without drug,-0.56,0.51
Tulp1,1,no change with or without drug,0.34,0.84
Zfp647,1,no change with or without drug,-1.01,1.18
ABCC8,1,no change with or without drug,0,-0.84
Dpysl5,1,no change with or without drug,-0.45,0.51
Gsx1,1,no change with or without drug,-0.22,-0.84
Plgrkt,1,no change with or without drug,0.45,1.35
Sema3e,1,no change with or without drug,-0.22,0.34
Sema3e,2,no change with or without drug,0,0.17
Nt5e,1,no change with or without drug,-1.57,-1.18
Ms4a1,1,no change with or without drug,0.22,-1.85
Snrnp70,1,low cell count with and without drug,-3.93,-3.54
Tmx2,1,no change with or without drug,-0.45,0.84

Entries listed so far whose target name begins with O or o:
gene knocked down,reagent,combined z-score class,viability z-score with doxorubicin,viability z-score without drug
Olig2,1,no change with or without drug,0.9,0.67
Or4a71,1,no change with or without drug,-0.11,-1.52
